# Values from PubChem BioAssay AID1259308 (NCATS, 2017)
# Assay: 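Candidate targets for better recombinant protein yield in mammalian cells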 (primary screen)
# Cells: human HEK293 embryonic kidney cells stably expressing firefly luciferase (HEK-CMV-Luc2-Hygro)
# Reagent: single siRNA against human genes, 0.8 pmol siRNA per well
# Time to read-out: 72 h
# Measured: 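Reporter luminescence and viable-cell signal on separate replicate plates, given as percent of non-targeting control and median/MAD z-scores, plus per-cell luciferase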
# Scale: total luciferase, z-score: higher = more reporter protein produced
# Active means: 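An siRNA counts as active if its total luciferase robust z-score exceeds 3; genes with two or more such siRNAs out of three were retested with fresh siRNAs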
# Meaning of the calls: active = raised luciferase; inactive = no rise
# Here is one part, drawn at random, of about 59,000 reagents. Of all reagents, about 1,510 (2.6%) are marked active. 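Calls use total luciferase alone and ignore viability, so some active siRNAs may act by altering cell number.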 Entries without a mark were called inactive. The numbers tell different reagents against one gene apart. Further read-outs or replicates are left out here.
Gene,siRNA no.,"total luciferase, z-score"
STAG2,1,-0.0818
STAG2,2,-0.21
STAG2,3,-0.13
RIC3,1,1.27
RIC3,2,-0.488
RIC3,3,-0.877
CCDC163,1,-0.63
CCDC163,2,0.0918
CCDC163,3,0.359
EXTL3,1,-0.366
EXTL3,2,0.424
EXTL3,3,-1.22
TPH1,1,-0.283
TPH1,2,-2.7
TPH1,3,-0.596
GUCA1C,1,-0.244
GUCA1C,2,-0.326
GUCA1C,3,1.76
ENAH,1,2.22
ENAH,2,0.387
ENAH,3,-0.252
UBXN10,1,-0.257
UBXN10,2,0.481
UBXN10,3,-0.323
